Reference: PubChem BioAssay AID540256 (National Center for Advancing Translational Sciences (NCATS), 2011)
“And” between values parts separate entries of the source, which are not always exact repeats. Equal values may be shown once. In all, about 300,000 compounds went through this assay and about 3,700 (1.2%) were called active. The inconclusive results got no clear call from the source; some entries with a clear call stand among them for comparison. Calls come from the whole dose curve; tested in HEK293 cells. Potencies beside an inconclusive call are fits to weak or partial responses and may not hold up.

Assay: qHTS for Inhibitors of binding or entry into cells for Lassa Virus; note: nearly all actives have a fitted effect of over 50% in size
Settings: Lassa virus pseudotype entry inhibition, cell reporter; activity change, negative = inhibition: at 37.9 µM (top of the series) unless noted
% is set by controls: 0 for no effect and ±100 for the full control effect; potency is the fitted concentration of half-maximal effect.

| SMILES | Potency | activity change, negative = inhibition |
| --- | --- | --- |
| Nc1ccc2c(c1)sc1ccccc12 | inconclusive: 16.4 µM [activator, partial curve] |  |
| CCOC(=O)Cc1cc(=O)n2[nH]c(C)c(-c3ccc(OC)cc3)c2n1 |  | inactive: 13.9% |
| CN(C)c1ccc(C(=O)c2ccc(N(C)C)c(N)c2)cc1N | inconclusive: 3.55 µM [inhibitor, partial curve, poor fit] |  |
| Cc1ccc(CNC(=O)CN(c2ccc(Cl)cc2Cl)S(=O)(=O)c2ccccc2)cc1 |  | inactive: -26.9% [at 46.1 µM] |
| CN(C)c1ccc(CNC(=O)CN(C)S(=O)(=O)c2ccc3c(c2)c(=O)n(C)c(=O)n3C)cc1 |  | inactive: -11.5% [at 46.1 µM] |
| Cc1cccc(N2CCN(C(=O)C3CCN(S(=O)(=O)c4cccs4)CC3)CC2)c1C | inconclusive: 35.5 µM [inhibitor, single point] |  |
| CN(C)c1ccc(C(O)P(=O)(OC2CCCCC2)OC2CCCCC2)cc1 (configuration not stated) | inconclusive: 4.47 µM [inhibitor, partial curve, poor fit] |  |
| CC(C)(C)NC(=O)COC(=O)c1ccccc1NC(=O)c1ccco1 |  | inactive: -5.48% |
| Cc1ccc(C(=O)NCCNC(=O)c2cccnc2)cc1 |  | inactive: 8.93% [at 46.1 µM] |
| CC12CC(c3ccccc3O1)N(C(=O)c1ccco1)C(=S)N2c1ccccc1 (configuration not stated) | inconclusive: 29.1 µM [inhibitor, single point] |  |
| CCOc1cc(CNC(C)C(O)c2ccccc2)cc(Cl)c1OCC (configuration not stated) | inconclusive: 29.1 µM [inhibitor, single point] |  |
| COc1ccc(NC(=O)CSc2ccccc2)c(OC)c1 | inconclusive: 5.62 µM [activator, full curve] |  |
| Cc1ccccc1Nc1nnc(-c2ccc(C)c(S(=O)(=O)N3CCOCC3)c2)c2ccccc12 | inconclusive: 20 µM [inhibitor, single point] |  |
| c1ccc2nc(N3CCCC3)c(N3CCCC3)nc2c1 |  | inactive: 4.71% |
| O=C(O)c1ccc(N/N=C/c2ccc(F)c(F)c2)cc1 | active: 6.31 µM |  |
| COc1ccc(N(C)C(=O)Cc2c(C(=O)O)[nH]c3ccccc23)cc1 |  | inactive: -2.22% |
| Cc1ccc(S(=O)(=O)Nc2ccc(Br)cc2C(NCC(=O)O)c2ccccc2)cc1 (configuration not stated) |  | inactive: 14% |
| COc1cccc(CC(=O)OCC(=O)N(C)CC(=O)Nc2ccc(Cl)c(C(F)(F)F)c2)c1 |  | inactive: 20.4% [at 46.1 µM] |
| CC1=C(C(=O)Nc2ccc(C)cc2C)C(c2ccc(Cl)cc2)n2nc(C(=O)OC(C)C)nc2N1 (configuration not stated) | inconclusive: 12.6 µM [inhibitor, partial curve, poor fit] |  |
| O=c1[nH]c(=S)[nH]c(O)c1CN1CCCCC1 | inconclusive: 15.8 µM [activator, single point] |  |
| Cc1sc2nc(C3CC3)nc(N3CCN(C(=O)c4ccccc4F)CC3)c2c1C | inconclusive: 4.47 µM [inhibitor, full curve, poor fit] |  |
| COc1cc(CN(C)c2ccc(S(=O)(=O)N3CCCC3)cn2)ccc1OC(F)F | inconclusive: 22.4 µM [inhibitor, single point] |  |
| Clc1cccc(N2CCN(CCCN3CCN(c4ccccc4)CC3)CC2)c1 | inconclusive: 2 µM [activator, single point] |  |
| C(C#CCCCCCCCCC[n+]1ccccc1)#CCCCCCCCCC[n+]1ccccc1 | inconclusive: 4.47 µM [inhibitor, full curve, poor fit] and inconclusive: 7.94 µM [inhibitor, partial curve, poor fit] |  |

| SMILES | Potency | activity change, negative = inhibition |
| --- | --- | --- |
| CC(=O)c1ccc(N2CCC(c3cc(-c4ccc(Cl)cc4)n[nH]3)CC2)c([N+](=O)[O-])c1 |  | inactive: -21.4% |
| Oc1ccc(-c2nnc(-c3ccc(O)cc3)nn2)cc1 | inconclusive: 11.2 µM [inhibitor, partial curve, poor fit] |  |
| O=C(CSc1ccc(Cl)cc1)Nc1ccccc1N1CCN(C(=O)c2ccc(Cl)cc2)CC1 | inconclusive: 22.4 µM [inhibitor, single point] |  |
| CN(N=O)c1ccc(O)c(O)c1 | inconclusive: 0.056 µM [activator, full curve, poor fit] |  |
| Cc1cccc(C(=O)NCC(c2cccs2)S(=O)(=O)c2cccs2)c1 (configuration not stated) |  | inactive: -0.486% [at 46.1 µM] |
| CSc1n[nH]c(-c2ccc(C(F)(F)F)cc2)n1 |  | inactive: 15.4% [at 46.1 µM] |
| COC(=O)CCS(=O)(=O)c1nc(-c2ccccc2)cc(C(F)(F)F)n1 | active: 23.1 µM |  |
| C/C(=N\NC(=O)c1cccc2ccccc12)c1ccccn1 | active: 7.94 µM |  |
| COc1ccccc1CCNC(=O)C(=O)NCC(c1ccco1)S(=O)(=O)c1cccs1 (configuration not stated) |  | inactive: -0.156% [at 46.1 µM] |
| O=C(c1ccc(-c2nc3ccccc3s2)s1)N1CCOCC1 | active: 3.55 µM |  |
| COc1cccc(OC)c1OCC(O)CN1CCN(c2ccc(F)cc2)CC1 (configuration not stated) | inconclusive: 0.794 µM [inhibitor, full curve, poor fit] |  |
| Cc1ccc(NC(=O)N2CC3CCCN3c3ccccc32)cc1C (configuration not stated) | inconclusive: 3.55 µM [inhibitor, full curve, poor fit] |  |
| Cc1nn(C)c(C)c1CN(C)S(=O)(=O)c1ccc2ccccc2c1 | inconclusive: 4.47 µM [inhibitor, full curve, poor fit] |  |
| Cn1ccc(C(=O)NC(=S)N2CCSCC2)n1 |  | inactive: 16.8% [at 46.1 µM] |
| COc1ccc(/C=N/Nc2nncc3ccccc23)cc1 | inconclusive: 10 µM [inhibitor, partial curve, poor fit] |  |
| CN(C)c1ccc(CN(Cc2ccco2)C(=O)COc2ccc(F)cc2)cc1 | active: 5.62 µM |  |
| Cc1ccc2oc(C(=O)Nc3nnc(C)s3)c(C)c2c1 | inconclusive: 35.5 µM [inhibitor, single point] |  |
| CSC(=S)NN=C(C)c1cccc(C)n1 | inconclusive: 7.08 µM [inhibitor, partial curve, poor fit] |  |
| CCCCC(=O)Nc1cccc(-c2cn3ccsc3n2)c1 | inconclusive: 20 µM [inhibitor, single point] |  |
| CCN(CC)C(=O)Cn1cc(C(=O)C(=O)NCc2ccccn2)c2ccccc21 |  | inactive: 16.3% [at 46.1 µM] |
| Cc1nnc(SCCC(=O)Nc2ccc(F)cc2)s1 | inconclusive: 1.58 µM [activator, partial curve, poor fit] |  |
| COC(=O)c1ccccc1NC(=O)c1ccc(NS(C)(=O)=O)cc1 |  | inactive: 4.32% |
| O=C(CSc1ccc(-c2cccc([N+](=O)[O-])c2)nn1)N1CCCCCC1 |  | inactive: 11.5% |
| COc1ccc(-c2cc(C(=O)NC(Cc3cc4ccccc4[nH]3)C(=O)O)c(C)o2)cc1OC (configuration not stated) |  | inactive: 19.2% |

| SMILES | Potency | activity change, negative = inhibition |
| --- | --- | --- |
| CC(=O)c1ccc(OCC(O)CN2CCN(S(=O)(=O)c3c(C)c(C)cc(C)c3C)CC2)cc1 (configuration not stated) | inconclusive: 11.2 µM [inhibitor, single point] |  |
| Cc1ccc(Cn2c(SCC(C)C)nc3c2c(=O)[nH]c(=O)n3C)cc1 |  | inactive: -18.4% |
| CC(C)C(=O)Nc1cccc(-c2nc3ccccc3o2)c1 |  | inactive: 4.67% |
| CN(C)S(=O)(=O)c1cccc(C(=O)NC(=S)N(CCC#N)Cc2cccnc2)c1 | inconclusive: 35.5 µM [inhibitor, single point] |  |
| N#Cc1c[nH]n2c(NC3CCCC3)c(-c3cccc(Br)c3)nc12 | inconclusive: 11.2 µM [inhibitor, single point] |  |
| CC(=NCCN1CCOCC1)c1c(O)n(C2CCCCC2)c(=O)[nH]c1=O | inconclusive: 0.517 µM [inhibitor, single point] |  |
| CC(O)CNc1nc2c(c(=O)n(C)c(=O)n2C)n1Cc1cccc(Br)c1 (configuration not stated) | inconclusive: 29.1 µM [inhibitor, partial curve, poor fit] |  |
| CCCN(CCC)CCNC(=O)C1CCN(Cc2nc(-c3ccc(Cl)cc3)oc2C)CC1 | inconclusive: 29.1 µM [inhibitor, single point] |  |
| CC(C(=O)OCC(=O)c1ccc(Br)cc1)N1C(=O)C2C3CCC(C3)C2C1=O (configuration not stated) | inconclusive: 6.31 µM [inhibitor, partial curve, poor fit] |  |
| Cc1onc(-c2ccccc2)c1C(=O)Nc1ccc(S(=O)(=O)N2CCCCC2)cc1 |  | inactive: -9.88% |
| COc1ccccc1CNc1ccc(Br)cn1 |  | inactive: -25.5% [at 46.1 µM] |
| CCOC(=O)c1c(C)[nH]c(C)c1S(=O)(=O)N1CCCC(C(=O)Nc2ncccc2C)C1 (configuration not stated) |  | inactive: 15.3% [at 46.1 µM] |
| Cc1ccc(C)c(NC(=O)COC(=O)c2ccc[n+]([O-])c2)c1 | inconclusive: 0.562 µM [inhibitor, full curve, poor fit] |  |
| Nc1ncc(-c2cc3ccccc3oc2=O)s1 |  | inactive: -24.4% |
| CCOc1nc(-c2ccccc2)ccc1-c1noc(-c2cccs2)n1 | inconclusive: 0.103 µM [inhibitor, full curve, poor fit] |  |
| CN(c1ccc(OCC(=O)NC2CCCC2)cc1)S(=O)(=O)c1cccs1 | inconclusive: 9.2 µM [inhibitor, single point] |  |
| CN(C)c1cc[n+](CC(=O)c2ccc(-c3ccccc3)cc2)cc1 | inconclusive: 7.3 µM [inhibitor, partial curve, poor fit] |  |
| CCOCC(=O)NC1CCc2cc(OC(=O)COCC)c(OC)c(OC)c2-c2ccc(SC)c(=O)cc21 (configuration not stated) | inconclusive: 0.126 µM [inhibitor, full curve, poor fit] |  |
| OC1CCCN(C(=S)Nc2ccc(SC(F)F)cc2)C1 (configuration not stated) | inconclusive: 12.6 µM [activator, single point] |  |
| CCOc1ccc(CCNC(=O)COC(=O)/C=C/c2ccccc2OC)cc1OCC |  | inactive: -3.09% |
| CCOc1ccccc1Nc1ccnc2cc(Cl)ccc12 | active: 10 µM |  |
| CCOCCc1nn2c(=O)cc(COC(=O)c3ccccc3NC(=O)c3ccccc3F)nc2s1 |  | inactive: 14.1% [at 46.1 µM] |
| O=C(NC1CCCCC1)N1CCN(c2ccccc2)CC1 |  | inactive: -1.65% |
| O=C1NC(c2ccccc2)=C(c2nc3ccccc3s2)C(c2ccc(F)cc2)N1 (configuration not stated) | inconclusive: 14.6 µM [inhibitor, partial curve] |  |

Not a retest: an excerpt of the list.

| SMILES | Potency | activity change, negative = inhibition |
| --- | --- | --- |
| OC1CCCN(C(=S)Nc2ccc(SC(F)F)cc2)C1 (configuration not stated) | inconclusive: 12.6 µM [activator, single point] |  |
| CCOc1ccc(CCNC(=O)COC(=O)/C=C/c2ccccc2OC)cc1OCC |  | inactive: -3.09% |
| CCOc1ccccc1Nc1ccnc2cc(Cl)ccc12 | active: 10 µM |  |
| CCOCCc1nn2c(=O)cc(COC(=O)c3ccccc3NC(=O)c3ccccc3F)nc2s1 |  | inactive: 14.1% [at 46.1 µM] |
